Data source: PubChem BioAssay AID1508588 (Peter MacCallum Cancer Centre, 2020)

Aim: 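Genome-wide search for knock-downs that heighten vemurafenib action in melanoma cells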 (primary screen)
Cells: human WM266.4 melanoma cells (BRAF V600 mutant)
Knock-down reagent: siRNA pool against human genes, 40 nM
Time to read-out: 96 h from transfection to read-out
Challenge: vemurafenib 300 nM (about IC25), added 48 h after transfection, for 48 h; comparison arm got DMSO vehicle only
Detection: 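Ratios to non-targeting siRNA for cell gain, counted as DAPI nuclei after minus before drug and averaged over two replicates, and for absorbance-read medium lactate per cell; both binned into fold-change classes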
Reading the numbers: cell gain with vemurafenib: higher = more cell gain than with non-targeting siRNA; lactate per cell with vemurafenib: higher = more lactate made per cell
Rule for the call: 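Enhancement is called by pairing each knock-down's vehicle-arm and drug-arm fold-change classes for viability or glycolysis; which class combinations qualify is not given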
Calls: active = enhances vemurafenib effect; inactive = no enhancement seen
In all, the deposit lists about 18,000 reagents; this is a part drawn at random. In the full data, 790 (4.4%) got an active call. 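Calls rest on a combination of fold-change classes in drug and vehicle arms, not all shown here.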 Reagent sequences are not shown.

gene | cell gain with vemurafenib | lactate per cell with vemurafenib | Call
API5 (apoptosis inhibitor 5) | 0.79 | 0.7 | inactive
SEMA3E (semaphorin 3E) | 0.72 | 1.04 | inactive
OR8K1 (olfactory receptor family 8 subfamily K member 1) | 0.68 | 0.38 | inactive
SYNDIG1 (synapse differentiation inducing 1) | 0.61 | 0.53 | inactive
B3GNT2 | 0.77 | 0.96 | inactive
TEX264 (testis expressed 264, ER-phagy receptor) | 1.09 | 0.75 | inactive
REDIC1 (regulator of DNA class I crossover intermediates 1) | 0.59 | 0.76 | inactive
DUSP19 (dual specificity phosphatase 19) | 0.92 | 1.46 | inactive
CXCL11 (C-X-C motif chemokine ligand 11) | 0.35 | 0.78 | inactive
PCDHB3 (protocadherin beta 3) | 0.88 | 0.67 | inactive
SEC61A2 (SEC61 translocon subunit alpha 2) | 0.68 | 0.68 | inactive
HOXA6 (homeobox A6) | 0.68 | 0.87 | inactive
CFAP44 (cilia and flagella associated protein 44) | 0.92 | 0.82 | inactive
GH2 (growth hormone 2) | 0.57 | 0.78 | inactive
MSMO1 (methylsterol monooxygenase 1) | 0.97 | 0.64 | inactive
TMEM74B (transmembrane protein 74B) | 0.54 | 1.4 | inactive
CAPN13 (calpain 13) | 0.77 | 1.12 | inactive
UBE2G2 (ubiquitin conjugating enzyme E2 G2) | 0.37 | 1.54 | inactive
RNASEK (ribonuclease K) | 0.73 | 1.01 | inactive
TXN2 (thioredoxin 2) | 0.01 | 0.94 | inactive
TAF1B | 0.63 | 0.52 | inactive
KLHL15 (kelch like family member 15) | 0.54 | 1.28 | inactive
CHST8 (carbohydrate sulfotransferase 8) | 0.09 | 1.07 | inactive
ABCB1 (ATP binding cassette subfamily B member 1) | 0.12 | 0.47 | inactive
FMNL1 (formin like 1) | 0.77 | 0.64 | inactive
APOC3 (apolipoprotein C3) | 0.78 | 0.53 | inactive
NOTCH2 (notch receptor 2) | 0.44 | 1.5 | inactive
SIPA1L2 (signal induced proliferation associated 1 like 2) | 0.24 | 0.82 | inactive
FREM1 (FRAS1 related extracellular matrix 1) | 0.65 | 0.82 | inactive
IFNL3 (interferon lambda 3) | 0.66 | 0.28 | inactive
WDR91 (WD repeat domain 91) | 0.67 | 1.14 | inactive
SNRNP40 (small nuclear ribonucleoprotein U5 subunit 40) | 0.46 | 1.45 | inactive
ENTREP1 (endosomal transmembrane epsin interactor 1) | 0.18 | 1.52 | inactive
KIR2DL1 | 0.24 | 1.29 | inactive
GLI2 (GLI family zinc finger 2) | 1.12 | 0.56 | inactive
DDX51 (DEAD-box helicase 51) | 0.63 | 0.53 | inactive
IFNLR1 (interferon lambda receptor 1) | 0.26 | 1.02 | inactive
DNAI2 (dynein axonemal intermediate chain 2) | -0.01 | 0.6 | inactive
ITGB3BP (integrin subunit beta 3 binding protein) | 0.74 | 0.64 | inactive
ABHD5 | 0.42 | 1.04 | inactive
MAGI2 | 0.61 | 1.31 | inactive
DCUN1D5 (defective in cullin neddylation 1 domain containing 5) | 0.93 | 0.56 | inactive
SIM2 (SIM bHLH transcription factor 2) | 0.66 | 1.37 | inactive
LAMA2 (laminin subunit alpha 2) | 0.44 | 0.68 | inactive
IKBKB (inhibitor of nuclear factor kappa B kinase subunit beta) | 0.37 | 1.28 | inactive

Looked up above:
GH2 (growth hormone 2), Call → inactive
Value of OR8K1 (olfactory receptor family 8 subfamily K member 1) under “cell gain with vemurafenib”: 0.68
For “cell gain with vemurafenib”, TMEM74B (transmembrane protein 74B) shows 0.54
Result for CHST8 (carbohydrate sulfotransferase 8) in “cell gain with vemurafenib”: 0.09
Result for IFNL3 (interferon lambda 3) under “Call”: inactive
B3GNT2, Call = inactive

Further results follow.
gene | cell gain with vemurafenib | lactate per cell with vemurafenib | Call
SMG9 (SMG9 nonsense mediated mRNA decay factor) | 0.63 | 1.38 | inactive
ABCA4 (ATP binding cassette subfamily A member 4) | 1.6 | 0.67 | inactive
ARRB1 (arrestin beta 1) | 0.73 | 1.14 | inactive
EP400 (E1A binding protein p400) | 0.33 | 0.3 | inactive
MOB2 (MOB kinase activator 2) | 0.6 | 1.36 | inactive
PIK3C3 (phosphatidylinositol 3-kinase catalytic subunit type 3) | 0.6 | 1.27 | inactive
BTBD7 (BTB domain containing 7) | 0.31 | 0.84 | inactive
RPL39L (ribosomal protein L39 like) | 0.15 | 0.72 | inactive
SNU13 (small nuclear ribonucleoprotein 13) | 0.63 | 1.43 | inactive
NCAPG2 (non-SMC condensin II complex subunit G2) | 0.77 | 1.03 | inactive
PLB1 (phospholipase B1) | 0.09 | 0.74 | inactive
NFATC4 (nuclear factor of activated T cells 4) | 0.86 | 0.33 | inactive
TNRC18 (trinucleotide repeat containing 18) | 0.95 | 1.12 | inactive
ASIP (agouti signaling protein) | 0.83 | 0.68 | inactive
DVL2 (dishevelled segment polarity protein 2) | 0.16 | 2.38 | inactive
OR4F6 (olfactory receptor family 4 subfamily F member 6) | 0.78 | 0.82 | inactive
GFI1 (growth factor independent 1 transcriptional repressor) | 0.98 | 0.88 | inactive
ACSL6 (acyl-CoA synthetase long chain family member 6) | 0.79 | 0.93 | inactive
SYTL1 (synaptotagmin like 1) | 1.11 | 0.48 | inactive
COX20 (cytochrome c oxidase assembly factor COX20) | 0.19 | 1.96 | inactive
SH3KBP1 (SH3 domain containing kinase binding protein 1) | 0.94 | 0.74 | inactive
VPS26B (VPS26 retromer complex component B) | 0.75 | 1.12 | inactive
MDGA1 (MAM domain containing glycosylphosphatidylinositol anchor 1) | 0.8 | 0.8 | inactive
PTPN12 (protein tyrosine phosphatase non-receptor type 12) | 0.22 | 2.81 | inactive
CYLC1 (cylicin 1) | 0.41 | 1 | inactive
ANKRD16 (ankyrin repeat domain 16) | 0.18 | 2.36 | inactive
GOLGA8G (golgin A8 family member G) | 0.77 | 0.64 | inactive
FASTK (Fas activated serine/threonine kinase) | 0.58 | 1.8 | inactive
UNG (uracil DNA glycosylase) | 0.44 | 0.86 | inactive
CAPN5 (calpain 5) | 0.66 | 0.55 | inactive
ADAM30 (ADAM metallopeptidase domain 30) | 0.76 | 1.3 | inactive
CROT (carnitine O-octanoyltransferase) | 0.39 | 1.54 | inactive
TPK1 (thiamin pyrophosphokinase 1) | 0.31 | 1.88 | inactive
SSX9P (SSX family member 9, pseudogene) | 0.85 | 0.78 | inactive
COL6A2 (collagen type VI alpha 2 chain) | 0.16 | 0.38 | inactive
PCDHGA6 (protocadherin gamma subfamily A, 6) | 0.59 | 0.43 | inactive
MAG (myelin associated glycoprotein) | 0.43 | 1.23 | inactive
FAM193A (family with sequence similarity 193 member A) | -0.18 | 0.64 | inactive
COCH (cochlin) | 0.92 | 0.64 | inactive
